Assay results taken from the odorant receptor screen of Mainland et al. (2015).
Where “and” joins values, the source holds several entries; their conditions need not be identical. Identical values can stand only once. Some of the results follow. Each value is one well over the wells without odorant, computed here; the data are noisy.

Experiments:
Assay in all cases: odorant receptor activation (CRE luciferase / Renilla) (fold of no-odor wells); higher = more activation
Conditions in all cases: 100 µM
[1] = tested on: OR2T5 clone 1495
[2] = tested on: OR2T5 clone 1496
[3] = tested on: OR2T6 N21D/C23G/S243A clone 1432
[4] = tested on: OR2T8 clone 1576
[5] = tested on: OR2V1 clone 1718
[6] = tested on: OR2W1 D296N clone 1536
[7] = tested on: OR2W1 clone 1067
[8] = tested on: OR2W3 Indel clone 1491
[9] = tested on: OR2W5 clone 1506
[10] = tested on: OR2Y1 V200L clone 1069
[11] = tested on: OR2Z1 clone 1296
[12] = tested on: OR3A1 clone 1288
[13] = tested on: OR3A2 clone 1286
[14] = tested on: OR3A3 clone 1549
[15] = tested on: OR3A4 I42V/S86R/E103Q/I120V/P168T/N175S clone 1550
[16] = tested on: OR4A15 A257V clone 1216
[17] = tested on: OR4A16 clone 1518
[18] = tested on: OR4A4 clone 1134
[19] = tested on: OR4A47 I104L/V145M clone 1579
[20] = tested on: OR4A5 clone 1637

SMILES | odorant receptor activation [1] | odorant receptor activation [2] | odorant receptor activation [3] | odorant receptor activation [4] | odorant receptor activation [5] | odorant receptor activation [6] | odorant receptor activation [7] | odorant receptor activation [8] | odorant receptor activation [9] | odorant receptor activation [10] | odorant receptor activation [11] | odorant receptor activation [12] | odorant receptor activation [13] | odorant receptor activation [14] | odorant receptor activation [15] | odorant receptor activation [16] | odorant receptor activation [17] | odorant receptor activation [18] | odorant receptor activation [19] | odorant receptor activation [20]
CS [methanethiol] | 1.05 | 0.995 | 0.992 | 0.77 | 0.881 | 1.01 | 0.999 and 1.2 | 0.815 | 0.776 | 1.29 | 0.586 | 1.14 | 1.01 | 0.588 | 0.682 | 1.07 | 0.945 | 0.91 | 0.745 | 0.782
CCCCOC(C)=O [butyl acetate] | 1.08 | 1 | 0.153 | 0.777 | 0.931 | 1.53 | 0.911 and 1.75 | 1.12 | 0.913 | 1.38 | 0.852 | 0.909 | 0.931 | 0.961 | 1.1 | 1.03 | 1.11 | 1.11 | 0.645 | 0.765
CCOc1cc(C=O)ccc1O [ethyl vanillin] | 1.01 and 1.94 and 1.08 | 0.93 and 1.57 and 1.32 | 1.34 and 1.2 | 0.844 | 0.814 | 1.29 and 2.42 and 1.02 | – | 1.04 and 1.79 and 1.11 | 1.16 and 1.77 and 1.29 | 1.27 and 0.968 | 2.41 and 0.825 | – | 1.09 and 0.765 | 0.877 | 0.953 | 1.39 and 1.42 | 1.12 and 2.17 and 0.921 | 0.872 and 1.25 | 0.684 | 0.969
CCC(C)=O [2-butanone] | 1.06 | 0.991 | 1.11 | 0.676 | 1.05 | 0.977 | 2.36 and 1.93 | 0.817 | 1.36 | 2.68 | 0.932 | 0.874 | 0.812 | 0.799 | 0.739 | 0.892 | 1.28 | 0.926 | 0.719 | 0.847
